From the supplement of paper PMC10849652
The other results are listed elsewhere or left out.

Protein sequences, listed by entry. Tags and fused reporters are not part of them. Lines headed by an entry give the natural chain unless they say otherwise; changes in a name come on top.
UniProt Q9BR61: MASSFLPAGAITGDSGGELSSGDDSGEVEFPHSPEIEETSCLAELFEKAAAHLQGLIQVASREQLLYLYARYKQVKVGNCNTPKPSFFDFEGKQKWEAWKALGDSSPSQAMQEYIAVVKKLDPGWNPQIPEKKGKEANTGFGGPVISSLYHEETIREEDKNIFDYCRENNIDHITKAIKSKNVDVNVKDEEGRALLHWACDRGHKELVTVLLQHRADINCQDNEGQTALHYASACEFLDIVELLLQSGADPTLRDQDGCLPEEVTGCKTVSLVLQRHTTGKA
UniProt Q13685: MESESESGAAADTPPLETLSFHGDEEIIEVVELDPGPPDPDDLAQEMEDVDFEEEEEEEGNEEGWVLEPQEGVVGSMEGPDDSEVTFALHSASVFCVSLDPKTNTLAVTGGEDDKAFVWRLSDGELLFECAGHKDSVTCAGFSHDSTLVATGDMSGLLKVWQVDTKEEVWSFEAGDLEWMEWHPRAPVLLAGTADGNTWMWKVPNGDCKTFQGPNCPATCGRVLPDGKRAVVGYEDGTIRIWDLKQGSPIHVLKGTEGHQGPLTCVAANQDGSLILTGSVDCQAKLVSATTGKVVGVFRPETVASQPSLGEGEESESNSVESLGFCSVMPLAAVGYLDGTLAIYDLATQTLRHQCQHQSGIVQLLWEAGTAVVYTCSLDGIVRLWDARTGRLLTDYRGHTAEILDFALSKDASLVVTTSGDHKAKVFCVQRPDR
UniProt Q0P651: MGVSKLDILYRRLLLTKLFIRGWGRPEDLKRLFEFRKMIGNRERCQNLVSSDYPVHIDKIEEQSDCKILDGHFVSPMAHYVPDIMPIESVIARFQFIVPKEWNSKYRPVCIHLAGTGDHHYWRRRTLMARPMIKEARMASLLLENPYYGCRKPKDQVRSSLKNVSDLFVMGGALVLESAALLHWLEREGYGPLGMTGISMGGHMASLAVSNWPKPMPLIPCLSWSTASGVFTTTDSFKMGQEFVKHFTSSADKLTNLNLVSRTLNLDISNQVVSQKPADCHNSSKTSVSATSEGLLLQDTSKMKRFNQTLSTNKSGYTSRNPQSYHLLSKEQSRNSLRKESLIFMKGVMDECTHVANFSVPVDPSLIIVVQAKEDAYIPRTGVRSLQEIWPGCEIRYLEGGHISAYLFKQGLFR
UniProt P12821, whole entry, looked up: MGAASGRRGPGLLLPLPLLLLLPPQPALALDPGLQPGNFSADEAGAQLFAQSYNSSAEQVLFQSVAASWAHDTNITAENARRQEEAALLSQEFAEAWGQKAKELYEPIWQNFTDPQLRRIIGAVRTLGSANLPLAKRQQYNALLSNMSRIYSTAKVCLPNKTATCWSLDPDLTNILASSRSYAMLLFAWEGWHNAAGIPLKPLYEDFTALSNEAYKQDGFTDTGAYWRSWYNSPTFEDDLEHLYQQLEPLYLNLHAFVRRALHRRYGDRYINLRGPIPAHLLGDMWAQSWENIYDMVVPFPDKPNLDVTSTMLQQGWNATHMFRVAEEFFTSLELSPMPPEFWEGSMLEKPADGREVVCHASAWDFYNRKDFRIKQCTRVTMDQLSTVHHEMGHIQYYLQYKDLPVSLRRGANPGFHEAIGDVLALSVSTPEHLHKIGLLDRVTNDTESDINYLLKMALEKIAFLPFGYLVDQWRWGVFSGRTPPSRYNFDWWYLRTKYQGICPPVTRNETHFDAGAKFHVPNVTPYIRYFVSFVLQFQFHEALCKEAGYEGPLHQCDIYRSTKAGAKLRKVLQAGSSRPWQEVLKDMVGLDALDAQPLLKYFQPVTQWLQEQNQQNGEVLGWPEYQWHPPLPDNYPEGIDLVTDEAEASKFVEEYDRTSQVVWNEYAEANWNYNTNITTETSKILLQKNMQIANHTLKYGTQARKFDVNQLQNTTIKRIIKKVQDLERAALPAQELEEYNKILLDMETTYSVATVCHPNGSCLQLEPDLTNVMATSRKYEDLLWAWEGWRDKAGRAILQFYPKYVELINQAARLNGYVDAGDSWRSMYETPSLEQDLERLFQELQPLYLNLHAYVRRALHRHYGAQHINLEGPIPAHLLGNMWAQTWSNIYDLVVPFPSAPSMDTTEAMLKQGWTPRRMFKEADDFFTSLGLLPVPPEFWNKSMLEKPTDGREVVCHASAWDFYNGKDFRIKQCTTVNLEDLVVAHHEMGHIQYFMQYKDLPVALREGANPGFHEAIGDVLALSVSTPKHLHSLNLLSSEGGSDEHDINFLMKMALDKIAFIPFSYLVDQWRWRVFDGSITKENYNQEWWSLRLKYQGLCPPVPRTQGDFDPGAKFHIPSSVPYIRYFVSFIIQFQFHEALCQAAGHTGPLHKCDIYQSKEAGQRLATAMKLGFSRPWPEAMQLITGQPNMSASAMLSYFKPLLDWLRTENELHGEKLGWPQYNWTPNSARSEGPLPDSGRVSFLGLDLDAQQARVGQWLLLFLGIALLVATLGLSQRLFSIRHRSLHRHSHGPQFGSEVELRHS
UniProt Q8TB40: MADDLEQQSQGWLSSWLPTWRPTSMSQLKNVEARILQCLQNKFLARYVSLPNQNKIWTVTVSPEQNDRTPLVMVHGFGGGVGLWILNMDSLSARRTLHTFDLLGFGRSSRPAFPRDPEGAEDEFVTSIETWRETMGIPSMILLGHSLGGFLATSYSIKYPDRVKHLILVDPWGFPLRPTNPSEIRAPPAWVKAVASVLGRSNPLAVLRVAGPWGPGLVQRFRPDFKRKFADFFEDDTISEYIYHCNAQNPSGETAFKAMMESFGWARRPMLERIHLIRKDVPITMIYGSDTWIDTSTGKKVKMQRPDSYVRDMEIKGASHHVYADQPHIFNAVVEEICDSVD
UniProt Q9UKU7: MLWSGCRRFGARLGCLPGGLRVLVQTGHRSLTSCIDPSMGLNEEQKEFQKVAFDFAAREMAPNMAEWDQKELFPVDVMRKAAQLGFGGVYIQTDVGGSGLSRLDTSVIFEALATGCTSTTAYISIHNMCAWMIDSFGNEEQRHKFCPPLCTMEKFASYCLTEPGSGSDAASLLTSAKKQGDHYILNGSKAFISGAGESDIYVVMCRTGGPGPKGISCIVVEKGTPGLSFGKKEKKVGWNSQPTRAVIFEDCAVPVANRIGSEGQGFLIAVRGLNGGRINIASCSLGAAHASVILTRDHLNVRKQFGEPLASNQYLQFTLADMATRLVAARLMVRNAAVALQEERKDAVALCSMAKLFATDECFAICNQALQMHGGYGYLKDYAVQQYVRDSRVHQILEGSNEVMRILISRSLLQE
UniProt Q5T3U5: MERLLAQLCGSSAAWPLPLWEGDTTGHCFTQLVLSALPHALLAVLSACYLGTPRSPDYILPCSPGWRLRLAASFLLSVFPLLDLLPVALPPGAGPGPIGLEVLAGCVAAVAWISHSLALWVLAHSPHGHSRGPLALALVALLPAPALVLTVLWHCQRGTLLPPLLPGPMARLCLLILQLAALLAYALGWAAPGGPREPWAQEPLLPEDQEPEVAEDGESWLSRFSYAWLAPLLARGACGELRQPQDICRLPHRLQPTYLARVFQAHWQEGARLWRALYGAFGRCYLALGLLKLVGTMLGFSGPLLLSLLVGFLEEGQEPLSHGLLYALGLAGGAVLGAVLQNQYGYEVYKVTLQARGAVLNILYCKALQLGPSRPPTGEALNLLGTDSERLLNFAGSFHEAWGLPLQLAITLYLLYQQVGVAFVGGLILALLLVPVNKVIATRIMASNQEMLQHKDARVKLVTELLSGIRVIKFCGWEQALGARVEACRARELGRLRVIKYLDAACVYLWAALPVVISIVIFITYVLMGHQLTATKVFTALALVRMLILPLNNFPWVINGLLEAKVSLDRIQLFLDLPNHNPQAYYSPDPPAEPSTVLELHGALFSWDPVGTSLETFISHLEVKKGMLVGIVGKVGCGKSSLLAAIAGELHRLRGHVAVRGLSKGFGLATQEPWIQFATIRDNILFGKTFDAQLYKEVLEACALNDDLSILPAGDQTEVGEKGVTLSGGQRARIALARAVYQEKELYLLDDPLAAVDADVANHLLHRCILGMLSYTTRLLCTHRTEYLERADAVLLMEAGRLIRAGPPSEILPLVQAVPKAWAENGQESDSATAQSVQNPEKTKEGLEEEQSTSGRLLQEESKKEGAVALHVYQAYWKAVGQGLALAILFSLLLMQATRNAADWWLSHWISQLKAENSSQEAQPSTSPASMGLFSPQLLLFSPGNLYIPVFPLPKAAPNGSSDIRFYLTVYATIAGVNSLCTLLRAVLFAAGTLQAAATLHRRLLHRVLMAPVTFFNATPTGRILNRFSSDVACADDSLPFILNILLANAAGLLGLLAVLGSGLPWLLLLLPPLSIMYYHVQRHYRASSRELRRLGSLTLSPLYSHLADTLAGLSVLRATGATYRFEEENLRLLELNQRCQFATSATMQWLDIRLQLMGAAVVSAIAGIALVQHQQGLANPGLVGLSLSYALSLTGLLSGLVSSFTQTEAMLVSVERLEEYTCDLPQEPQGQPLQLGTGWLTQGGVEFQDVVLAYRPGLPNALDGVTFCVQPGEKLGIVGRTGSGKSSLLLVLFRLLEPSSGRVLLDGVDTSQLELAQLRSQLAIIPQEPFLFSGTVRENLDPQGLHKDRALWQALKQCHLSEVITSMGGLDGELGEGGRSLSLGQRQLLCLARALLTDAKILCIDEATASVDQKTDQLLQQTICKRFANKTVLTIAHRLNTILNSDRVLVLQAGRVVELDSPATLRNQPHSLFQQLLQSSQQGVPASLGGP
UniProt P53396: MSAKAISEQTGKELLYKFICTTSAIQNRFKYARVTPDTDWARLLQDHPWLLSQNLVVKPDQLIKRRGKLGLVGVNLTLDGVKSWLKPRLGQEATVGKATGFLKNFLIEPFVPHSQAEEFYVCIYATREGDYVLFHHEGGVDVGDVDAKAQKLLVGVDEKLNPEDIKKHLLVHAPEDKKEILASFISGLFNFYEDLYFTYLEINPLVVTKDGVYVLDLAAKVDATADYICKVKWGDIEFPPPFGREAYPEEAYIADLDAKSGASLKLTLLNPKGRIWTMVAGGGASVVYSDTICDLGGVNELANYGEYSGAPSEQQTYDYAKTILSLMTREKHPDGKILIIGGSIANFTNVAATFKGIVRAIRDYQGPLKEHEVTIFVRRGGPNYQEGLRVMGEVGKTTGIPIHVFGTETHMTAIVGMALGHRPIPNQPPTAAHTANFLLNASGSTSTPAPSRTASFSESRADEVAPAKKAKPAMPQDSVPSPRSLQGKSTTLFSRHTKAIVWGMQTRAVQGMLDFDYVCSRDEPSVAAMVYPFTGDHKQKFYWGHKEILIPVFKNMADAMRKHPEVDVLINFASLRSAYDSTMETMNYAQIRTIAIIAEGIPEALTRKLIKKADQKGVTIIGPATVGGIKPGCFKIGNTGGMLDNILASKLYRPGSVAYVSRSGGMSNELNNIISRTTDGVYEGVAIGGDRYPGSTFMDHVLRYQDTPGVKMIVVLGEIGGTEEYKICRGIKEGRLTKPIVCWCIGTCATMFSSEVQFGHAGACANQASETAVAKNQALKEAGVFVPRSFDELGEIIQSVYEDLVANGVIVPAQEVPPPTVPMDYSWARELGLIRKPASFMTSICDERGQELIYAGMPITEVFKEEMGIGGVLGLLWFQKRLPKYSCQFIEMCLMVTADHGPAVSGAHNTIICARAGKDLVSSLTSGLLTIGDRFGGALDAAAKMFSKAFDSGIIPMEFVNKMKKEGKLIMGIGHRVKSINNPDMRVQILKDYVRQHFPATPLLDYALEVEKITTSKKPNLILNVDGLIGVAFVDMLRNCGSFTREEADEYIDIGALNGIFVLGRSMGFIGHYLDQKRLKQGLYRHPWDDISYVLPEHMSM
UniProt Q96AP0: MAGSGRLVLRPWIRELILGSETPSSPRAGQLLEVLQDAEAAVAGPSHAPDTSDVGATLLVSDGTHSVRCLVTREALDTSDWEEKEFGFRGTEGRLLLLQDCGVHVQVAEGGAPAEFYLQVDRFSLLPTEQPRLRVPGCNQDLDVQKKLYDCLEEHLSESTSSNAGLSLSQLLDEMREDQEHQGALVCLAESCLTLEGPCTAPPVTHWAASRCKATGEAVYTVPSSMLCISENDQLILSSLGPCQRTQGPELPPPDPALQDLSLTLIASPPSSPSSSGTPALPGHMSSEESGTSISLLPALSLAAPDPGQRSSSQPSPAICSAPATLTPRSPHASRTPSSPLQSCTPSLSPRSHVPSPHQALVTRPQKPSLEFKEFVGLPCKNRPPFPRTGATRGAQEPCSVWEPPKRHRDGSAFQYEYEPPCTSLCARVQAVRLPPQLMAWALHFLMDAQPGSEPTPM
UniProt Q7L211: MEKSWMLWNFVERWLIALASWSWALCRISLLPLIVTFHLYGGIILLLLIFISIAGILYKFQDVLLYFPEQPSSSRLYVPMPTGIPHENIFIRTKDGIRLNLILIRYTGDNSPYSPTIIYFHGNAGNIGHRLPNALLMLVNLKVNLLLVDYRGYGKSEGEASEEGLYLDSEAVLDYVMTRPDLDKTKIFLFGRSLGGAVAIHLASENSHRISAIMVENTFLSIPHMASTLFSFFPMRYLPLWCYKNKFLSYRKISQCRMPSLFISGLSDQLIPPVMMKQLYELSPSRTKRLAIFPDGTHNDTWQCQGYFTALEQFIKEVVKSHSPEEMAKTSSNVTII

Assays:
Assay in all cases: log2 fold change, soluble protein after heating vs DMSO (PISA); higher = thermal stabilisation; K562 lysate, 10 uM; active = over 0.2 and 3.5 SD of the protein, either way, in both replicates (recomputed)
nilotinib = compound: Cc1cn(-c2cc(NC(=O)c3ccc(C)c(Nc4nccc(-c5cccnc5)n4)c3)cc(C(F)(F)F)c2)cn1 [nilotinib]
In short: (§1)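 Dounce homogenisation of K562 pellets in PBS pH 7.4 with 1 mM MgCl2 produced a crude extract, used at 1 mg/mL protein. Exposure to 10 μM compound lasted 30 min, and aliquots were then heated for 3 min across 48°C-58°C, pooled and brought to 0.5% NP-40 at 4°C. The supernatant after 21,000xg for 90 min was quantified by TMTpro 16plex LC-MS/MS with channel sums equalised. Duplicate values are given as log-two fold change in thermal stability relative to solvent controls.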

[1] = compound: Cc1nc(Nc2n[nH]c3c2CN(C(=O)N[C@H](CN(C)C)c2ccccc2)C3(C)C)c2sccc2n1
In short: as §1

dasatinib = compound: Cc1nc(Nc2ncc(C(=O)Nc3c(C)cccc3Cl)s2)cc(N2CCN(CCO)CC2)n1 [dasatinib]
In short: as §1

[2] = compound: Cc1ncc(-c2ccnc(Nc3ccc(S(C)(=O)=O)cc3)n2)n1C(C)C
In short: as §1

[3] = compound: Cn1cc(-c2ccc3c(c2)CCN3C(=O)Cc2cccc(C(F)(F)F)c2)c2c(N)ncnc21
In short: as §1

quisinostat = compound: Cn1cc(CNCC2CCN(c3ncc(C(=O)NO)cn3)CC2)c2ccccc21 [quisinostat]
In short: as §1

tipifarnib = compound: Cn1cncc1[C@@](N)(c1ccc(Cl)cc1)c1ccc2c(c1)c(-c1cccc(Cl)c1)cc(=O)n2C [tipifarnib]
In short: as §1

[4] = compound: NC(=O)Nc1cc(-c2cccc(F)c2)sc1C(=O)N[C@H]1CCCNC1
In short: as §1

[5] = compound: NC(=O)c1cnc(N[C@@H]2CCCC[C@@H]2N)nc1Nc1cccc(-n2nccn2)c1
In short: as §1

[6] = compound: NC1(c2ccc(-c3nc4ccn5c(=O)[nH]nc5c4cc3-c3ccccc3)cc2)CCC1
In short: as §1

[7] = compound: NCC(=O)Nc1ccc(-n2nc(C(F)(F)F)cc2-c2ccc3c(ccc4ccccc43)c2)cc1
In short: as §1

vorinostat = compound: O=C(CCCCCCC(=O)Nc1ccccc1)NO [vorinostat]
In short: as §1

silmitasertib = compound: O=C(O)c1ccc2c(c1)nc(Nc1cccc(Cl)c1)c1ccncc12 [silmitasertib]
In short: as §1

[8] = compound: O=C1NC(=O)C(c2cnc3ccccn23)=C1c1cn2c3c(cc(F)cc13)CN(C(=O)N1CCCCC1)CC2
In short: as §1

entospletinib = compound: c1cn2cc(-c3ccc4cn[nH]c4c3)nc(Nc3ccc(N4CCOCC4)cc3)c2n1 [entospletinib]
In short: as §1

Measured: log2 fold change

ABCD3 (UniProt P28288)
inactive: nilotinib 0.019 | [1] 0.093 | dasatinib -0.063 | [2] -0.184 | [3] 0.031 | quisinostat 0.074 | tipifarnib -0.025 | [4] 0.016 | [5] -0.054 | [6] 0.087 | [7] -0.019 | vorinostat -0.164 | silmitasertib 0.113 | [8] -0.08 | entospletinib 0.034

ACBD6 (UniProt Q9BR61)
active: vorinostat -0.298
inactive: nilotinib -0.032 | [1] 0.007 | dasatinib 0.04 | [2] 0.012 | [3] 0.013 | quisinostat -0.017 | tipifarnib 0.013 | [4] -0.014 | [5] 0.06 | [6] -0.04 | [7] -0.009 | silmitasertib 0.003 | [8] 0.028 | entospletinib -0.028

ABHD16A (UniProt O95870)
active: vorinostat 0.906
inactive: nilotinib -0.015 | [1] 0.02 | dasatinib 0.009 | [2] 0.027 | [3] -0.051 | quisinostat 0.143 | tipifarnib -0.012 | [4] -0.014 | [5] -0.003 | [6] -0.054 | [7] 0.007 | silmitasertib -0.1 | [8] -0.056 | entospletinib -0.01

AAMP (UniProt Q13685)
inactive: nilotinib 0.046 | [1] -0.001 | dasatinib 0.027 | [2] 0.065 | [3] 0.027 | quisinostat -0.015 | tipifarnib 0.007 | [4] -0.019 | [5] -0.002 | [6] 0.02 | [7] -0.008 | vorinostat 0.022 | silmitasertib -0.009 | [8] -0.013 | entospletinib 0.014

ABI1 isoform 6 (UniProt Q8IZP0)
inactive: [5] 0.113 | entospletinib -0.115

ACAT1, A0A5F9ZHJ0
inactive: nilotinib -0.176 | [1] 0.063 | [2] 0.024 | tipifarnib 0.07

ABHD18 (UniProt Q0P651)
inactive: nilotinib -0.222 | [1] 0.163 | [2] 0.086 | tipifarnib 0.195 | [6] 0.101 | vorinostat -0.053 | silmitasertib -0.001 | entospletinib 0

A0A494C100, A0A494C100
inactive: dasatinib 0.038 | [3] 0.023 | [7] 0.017

ACAP1 (UniProt Q15027)
inactive: quisinostat -0.121 | [4] 0.096 | [8] -0.122

ACBD7 (UniProt Q8N6N7)
inactive: dasatinib 0.021 | [3] -0.063 | [5] -0.094 | [6] 0.013 | vorinostat 0.08 | silmitasertib 0.06

A2ML1 (UniProt A8K2U0)
inactive: quisinostat 0.122 | [4] -0.136 | [5] -0.066 | [6] 0.123 | vorinostat 0.048 | silmitasertib -0.044 | [8] 0.437

ACBD5 (UniProt Q5T8D3)
inactive: dasatinib 0.059 | [3] -0.129 | [5] 0.041 | [6] -0.054 | vorinostat 0.152 | silmitasertib 0.004

ACAD10 isoform 5 (UniProt Q6JQN1)
inactive: nilotinib -0.054 | [1] -0.097 | dasatinib 0.015 | [2] 0.076 | [3] -0.03 | quisinostat -0.186 | tipifarnib -0.148 | [4] 0.013 | [5] 0.004 | [6] -0.043 | vorinostat -0.103 | silmitasertib 0.068 | [8] 0.067 | entospletinib -0.037

AARS1 (UniProt H3BPK7)
inactive: [7] -0.173

ABCA7 (UniProt Q8IZY2)
inactive: dasatinib 0.143 | [3] 0.079 | quisinostat -0.142 | [4] 0.16 | [8] 0.231

ABL1 isoform 2 (UniProt P00519)
inactive: [1] 0.006 | [2] 0.019 | [3] -0.002 | quisinostat -0.074 | tipifarnib -0.074 | [4] 0.08 | [5] 0.022 | [6] -0.009 | [7] -0.003 | silmitasertib -0.019 | [8] -0.042 | entospletinib -0.008
active: vorinostat -0.328

ACAP3 (UniProt Q96P50)
inactive: nilotinib 0.03 | [1] -0.092 | dasatinib 0.023 | [2] 0.139 | [3] 0.062 | tipifarnib -0.173 | [5] -0.057 | entospletinib 0.062

ABCC5 (UniProt O15440)
inactive: dasatinib 0.105 | [3] -0.047 | quisinostat -0.003 | [4] 0.035 | [5] -0.035 | [6] -0.015 | [7] 0.025 | vorinostat 0.042 | silmitasertib -0.023 | [8] -0.028 | entospletinib -0.036

Random excerpt: 3 records from the list.
AARS1 (UniProt H3BPK7)
inactive: [7] -0.173

ABL1 isoform 2 (UniProt P00519)
inactive: [1] 0.006 | [2] 0.019 | [3] -0.002 | quisinostat -0.074 | tipifarnib -0.074 | [4] 0.08 | [5] 0.022 | [6] -0.009 | [7] -0.003 | silmitasertib -0.019 | [8] -0.042 | entospletinib -0.008
active: vorinostat -0.328

ACAD10 isoform 5 (UniProt Q6JQN1)
inactive: nilotinib -0.054 | [1] -0.097 | dasatinib 0.015 | [2] 0.076 | [3] -0.03 | quisinostat -0.186 | tipifarnib -0.148 | [4] 0.013 | [5] 0.004 | [6] -0.043 | vorinostat -0.103 | silmitasertib 0.068 | [8] 0.067 | entospletinib -0.037

(cont.)

ACE (UniProt P12821)
inactive: [5] 0.122 | [6] 0.046 | [7] -0.021 | vorinostat 0.002 | silmitasertib -0.034

ABCA3 (UniProt Q99758)
inactive: dasatinib 0.044 | [3] -0.066 | quisinostat 0.08 | [4] -0.092 | [5] 0.001 | [6] -0.019 | [7] -0.157 | vorinostat 0.087 | silmitasertib -0.062 | [8] 0 | entospletinib 0.28

ABCD4 (UniProt O14678)
inactive: [5] 0.098 | [6] 0.037 | vorinostat 0.123 | silmitasertib 0.072

A0A494C071, A0A494C071
inactive: dasatinib -0.238 | [3] 0.097

ABCE1 (UniProt H0Y990)
inactive: quisinostat -0.061 | [4] 0.045 | [6] -0.075 | [7] 0.137 | vorinostat 0.277 | silmitasertib 0.011 | [8] -0.026 | entospletinib 0.064

ABRAXAS2 (UniProt Q15018)
inactive: nilotinib -0.009 | [1] -0.009 | dasatinib 0.024 | [2] -0.023 | [3] 0.079 | quisinostat 0.089 | tipifarnib 0.008 | [4] -0.02 | [5] -0.036 | [6] 0.044 | [7] 0.001 | vorinostat 0.089 | silmitasertib -0.011 | [8] 0.007 | entospletinib -0.017

ABHD4 (UniProt Q8TB40)
inactive: nilotinib 0.151 | [1] 0.007 | [2] -0.078 | tipifarnib -0.027 | [7] 0.027

ACAD8 (UniProt Q9UKU7)
inactive: dasatinib 0.071 | [3] 0.002 | quisinostat -0.047 | [4] -0.006 | [5] 0.031 | [7] -0.012 | [8] 0.007

ABCC10 (UniProt Q5T3U5)
inactive: nilotinib 0.209 | [1] 0.02 | dasatinib 0.082 | [2] 0.094 | [3] 0.02 | tipifarnib -0.008 | [6] -0.054 | vorinostat 0 | silmitasertib 0.044

AARSD1 (UniProt Q9BTE6)
inactive: nilotinib 0.09 | [1] -0.167 | dasatinib 0.033 | [2] 0.07 | [3] 0.031 | tipifarnib 0.148 | [5] 0.341 | entospletinib -0.048

ACLY isoform 2 (UniProt P53396)
inactive: nilotinib 0.08 | [1] 0.038 | [2] 0.191 | quisinostat 0.162 | tipifarnib 0.02 | [4] -0.027 | [5] -0.062 | [7] 0.091 | [8] -0.061 | entospletinib -0.047

ABCC3 isoform 4 (UniProt O15438)
inactive: dasatinib -0.056 | [3] -0.021 | quisinostat -0.005 | [4] 0.015 | [5] 0.05 | [8] 0.043

ABRACL (UniProt Q9P1F3)
active: vorinostat -0.845
inactive: nilotinib 0.194 | [1] 0.006 | dasatinib -0.119 | [2] -0.042 | [3] -0.067 | quisinostat 0.053 | tipifarnib 0.023 | [4] -0.083 | [5] 0.037 | [6] -0.076 | silmitasertib 0.111 | [8] 0.088

ABCA8 isoform 3 (UniProt O94911)
inactive: quisinostat 0.005 | [4] 0.041 | [5] 0.104 | [6] -0.208 | vorinostat 0.273 | silmitasertib -0.038 | [8] -0.062

AASDH (UniProt Q4L235)
inactive: nilotinib -0.018 | [1] 0.071 | dasatinib -0.071 | [2] -0.06 | [3] 0.016 | tipifarnib -0.056 | [5] 0.026 | [6] 0.091 | [7] 0.114 | vorinostat -0.122 | silmitasertib -0.059 | entospletinib -0.102

ACD (UniProt Q96AP0)
inactive: quisinostat -0.135 | [4] 0.003 | [8] -0.068

ABHD13 (UniProt Q7L211)
inactive: nilotinib 0.152 | [1] -0.186 | dasatinib -0.177 | [2] -0.069 | [3] 0.21 | quisinostat 0.121 | tipifarnib -0.233 | [4] -0.029 | [5] 0.037 | [7] 0.023 | [8] 0.027 | entospletinib -0.12

ABHD15 (UniProt Q6UXT9)
inactive: [5] -0.014 | [6] 0.016 | [7] 0.038 | vorinostat 0.086 | silmitasertib 0.01 | entospletinib -0.043
